Experimental data from article PMC10399982.
No constants are given. Whether binding was seen depends on the method and setting. Binding seen in cells or lysates may run through a third protein. Some entries that bind do so weakly or less than the wild type. Tags and fused reporters may be left off the sequences shown.

Target: T1, G-protein-coupled AprA receptor GrlH (Dictyostelium discoideum (endogenous in Ax2-derived cells)) (UniProt Q54SH8)
T1 sequence: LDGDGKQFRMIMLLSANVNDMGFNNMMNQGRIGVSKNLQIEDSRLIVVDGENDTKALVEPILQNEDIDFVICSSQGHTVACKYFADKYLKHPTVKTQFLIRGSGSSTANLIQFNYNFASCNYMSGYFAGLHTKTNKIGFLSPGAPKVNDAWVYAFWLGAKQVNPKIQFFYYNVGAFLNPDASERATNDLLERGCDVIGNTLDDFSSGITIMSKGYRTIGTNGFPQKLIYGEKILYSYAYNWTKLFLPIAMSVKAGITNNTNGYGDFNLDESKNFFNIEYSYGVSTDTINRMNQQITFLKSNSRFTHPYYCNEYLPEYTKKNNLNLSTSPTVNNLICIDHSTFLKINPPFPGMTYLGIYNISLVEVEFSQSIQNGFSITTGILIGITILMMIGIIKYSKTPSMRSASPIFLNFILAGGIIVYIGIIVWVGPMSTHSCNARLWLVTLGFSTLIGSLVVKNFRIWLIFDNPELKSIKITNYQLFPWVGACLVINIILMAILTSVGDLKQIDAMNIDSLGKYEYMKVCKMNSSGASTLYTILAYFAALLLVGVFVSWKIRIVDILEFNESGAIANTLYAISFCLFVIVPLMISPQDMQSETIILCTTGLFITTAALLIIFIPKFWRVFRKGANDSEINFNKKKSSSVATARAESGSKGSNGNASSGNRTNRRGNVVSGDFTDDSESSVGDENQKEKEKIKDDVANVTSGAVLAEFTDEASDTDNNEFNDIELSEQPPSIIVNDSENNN
Experiment: co-sedimentation; adherent cells in HL5 incubated with 300 ng/ml rAprA, lysed mechanically, centrifuged at 14,000 g for 1 h at 4°C into pellet (contains plasma membranes) and supernatant; western blot for Myc; grlH− cells as comparison; only the binder purified

binding: binds
B1: Myc-tagged recombinant AprA (autocrine proliferation repressor protein A) (ligand, UniProt Q5XM24 19-494)
chain: TPLDDYVNAPDDTYKWTLNNTIEYETFTGYILELTSQTWMAEKSDWPVWKHWVSICVPKGVTTTTTFIYVDGGSNDNWKVPGSMDQTIEIVCLSSGSVSVGLTQIPNQPIIFNNDGVQRFEDDLVAYTWRQFLGNTSEPLWLARLPMTKAVVKCMDAVQEFGKTIGYNSENFVIAGASKRGWTTWLAGVVDPRIIAIVPIVMPILNMIPNMGHQFYAYGEWSFALNDYTGQGVMDYLNGPQMVELAAIVDPFSYRDRYTMPIYAIASSDDEFFLPDSPQFFWNNLTATPEKHLRIVPNAEHSLMGHQIDIILSIVTFVRLLITNQPRPTFTWDITYSEDLNSGTIVLTVPEGGIIPYKVKVWTAVTESTTRRDFRIITCMDITKCIQFIIWDPSDITPTSTGVYSITLSKPDAGWRAFFLEAEYLYAKNSIDDEYTLKFTSEVAIVPNTLPFGSCSEYNACGDGSQGDSASSTATL
